# Screening data

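Luminescence from an EWS-FLI1 target-promoter (NR0B1) reporter, set against a CMV-promoter reporter, two days after silencing single genes in TC32 Ewing sarcoma cells.
Each siRNA was applied at 20 nM.
A z-score of the log NR0B1-over-CMV signal, less the median of siRNAs with the same seed; more negative means a stronger specific loss of the NR0B1 reporter.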

The strongest results of the screen are mostly left out here.
Sequences are the guide (antisense) strand, without overhang.

strand: UUUGCUCUGCACUAGUCCG
gene: TMEM205
seed-corrected z-score: -0.1873

strand: UGGUAAGUCAUGGUCUUCC
gene: SPIC
seed-corrected z-score: 0.5395

strand: UGAGGAUGCACAUGUAGGC
gene: GPR45
seed-corrected z-score: 0.8681

strand: UGUCUGUCAACAUAGUAGG
gene: EMC3
seed-corrected z-score: 1.233

strand: UUUCCAUUCAUGAUAGGCC
gene: BTN3A3
seed-corrected z-score: -0.08755

strand: UUGAAGUUGAGAUAGGUGG
gene: LAPTM5
seed-corrected z-score: -0.2664

strand: UGUUGACUGACAGAGAGCC
gene: CCDC136
seed-corrected z-score: -1.749

strand: UCAUAGGUAACAUUAAGGG
gene: USP24
seed-corrected z-score: -0.02971

strand: UUGAUGAUCACAUAAGAGU
gene: CAPN5
seed-corrected z-score: -0.006628

strand: UUAUCCAUCAGGGACGAGC
gene: EDN1
seed-corrected z-score: 0.4575

strand: UUAACGGUGACAGUUGUAG
gene: DSC1
seed-corrected z-score: -0.2665

strand: UCAUCAUCCUGUUCGACUG
gene: ATG16L1
seed-corrected z-score: -0.1236

strand: AAGUGUAAGAAGUAAGUGG
gene: XRCC2
seed-corrected z-score: 0.946

strand: UCUUGUAGUACCGCAGGAG
gene: RPS11P5
seed-corrected z-score: 1.49

strand: UAGGCAUCCACUGACCUCG
gene: SPATA2
seed-corrected z-score: 0.7812

strand: AUUCGUAAAGGUAAAUAGC
gene: SACS
seed-corrected z-score: 0.05225

strand: AAUAGGUUUAAAAAGAUCC
gene: PIK3C2A
seed-corrected z-score: -0.5745

strand: AAAGACAAUAUAUGUAAGC
gene: DLK1
seed-corrected z-score: 0.1738

strand: UUCUUUAGUAUCACUCAGG
gene: GALR1
seed-corrected z-score: -0.05422

strand: UUUAUAAUCAGGUUAGGAC
gene: REXO2
seed-corrected z-score: -0.4974

strand: AAAUGUUCUUGUAUGACUC
gene: COL9A1
seed-corrected z-score: 1.03

strand: UUACUGUUGUUGUCCAUGG
gene: FOXO1
seed-corrected z-score: -0.2177

strand: UAGGUGAAACUGUAGCUCC
gene: PCDHGB3
seed-corrected z-score: 0.282

strand: AAAGUCACCGAAGCCGAUG
gene: KCNK5
seed-corrected z-score: -0.07495

strand: UUUUGCCUCAGUGAGUUCU
gene: LINC00898
seed-corrected z-score: -0.8517

strand: UCUCUCCAUAGUCUACAUC
gene: TMEM40
seed-corrected z-score: 0.0586

strand: UUAGGCAUGAUGAAUAAAU
gene: KRTAP4-12
seed-corrected z-score: 0.4076

strand: UACGAUCCAUUCGAGAUGG
gene: SMARCC1
seed-corrected z-score: -0.9594

strand: UUCCUUAGGAAACUCGCCG
gene: KIAA1671
seed-corrected z-score: -0.09875

strand: UGUCAACAAUCUGAGAGCC
gene: GABARAPL2
seed-corrected z-score: 0.1718

strand: AAAGGUACUCAACUCAGGC
gene: PRAM1
seed-corrected z-score: -0.7721

strand: UCAGUUCACAUCUCUCUUC
gene: MYEOV2
seed-corrected z-score: 0.671

strand: UUUCGAUAAAGUUCCUCAC
gene: PNPLA8
seed-corrected z-score: -0.03224

strand: UUCCUUUAGAUACUUUUCC
gene: CHKA
seed-corrected z-score: -0.389

strand: UUCAGUGUCACUAUGGUGC
gene: IFNAR2
seed-corrected z-score: 0.8053

strand: UCCUCUUCCAAUAUUGUCU
gene: DAB1
seed-corrected z-score: 0.4083

strand: UUUCGAGUAAAGCUUUUCC
gene: ZNF662
seed-corrected z-score: 0.06133

strand: UUCGGAUUGAAUUCUGGGC
gene: ABCB7
seed-corrected z-score: 0.01734

strand: UAUUCGACUAUAGAAGUUG
gene: NME8
seed-corrected z-score: 0.3928

strand: UACCGAACCAGCUGACUUG
gene: IDE
seed-corrected z-score: -0.06637

strand: UCCAUUUUCACGACAACAC
gene: OTOGL
seed-corrected z-score: 0.0215

strand: UUUAAUAAGUUCCAAAUCC
gene: STX12
seed-corrected z-score: 0.6568

strand: UGUUCAGUAAGACUGAAGG
gene: ZNF418
seed-corrected z-score: -0.2257

strand: UUUGGUAAGGCAGGGAAUG
gene: PLEKHG2
seed-corrected z-score: -0.5384

strand: UUUCUUAUCUUUGCGCAUC
gene: SUPT3H
seed-corrected z-score: -0.09679

strand: UGUUACAUCAGCAUCAAUC
gene: DLD
seed-corrected z-score: -0.1211

strand: UAUGGUUUCGGACCACCAG
gene: ACP6
seed-corrected z-score: 0.252

strand: AUAAUUACUCAGGAUAGUG
gene: GABRE
seed-corrected z-score: -1.139

strand: UUAGUUGCCGGUGAAGUUC
gene: MOCOS
seed-corrected z-score: -0.7708

strand: UCUCGUACAACCACGUUUG
gene: RCC2
seed-corrected z-score: -0.2926

Data taken from PubChem BioAssay AID1159506, deposited by NCATS (2015).